According to US20230020092 (published 2023):

What was measured:
[1] = general procedure: Fmoc solid-phase peptide synthesis; Rink amide resin; HATU/DIEA (cyclization); conditions: whole synthesis, scale 1 mmol, TFA salt
[2] = general procedure: Fmoc solid-phase peptide synthesis; Rink amide resin (1.0 mmol/g); HATU/DIEA (cyclization); conditions: conjugation step, TFA salt

Row | Substance | crude mass [1] [g] | crude yield [1] [%] | final purity (method not given) [2] [%]
1 | cyclo(Phe-D-Phe-SNal-Arg-D-Arg-Arg-D-Arg-γ-Glu)-b-Ala-b-Ala-Lys(Maleimide)-NH2 | 2 | 70.1 | 
2 | 5'-GGCCAAACCTCGGCTTACCTGAAAT-3'-C3-NH-PEG12-CPP12 (all PMO monomers) (SEQ ID NO: 244) |  |  | >99
